One substance from patent US20030194373A1 (priority 1998, published 2003) can be followed below.

The data set is described as follows: general procedure: Fmoc solid-phase peptide synthesis; preloaded 1,3-diaminopropyltrityl resin; 0.50 M 14BTU/HOBt/DMF with 2.0M DIEA/NMP. To be noted: whole synthesis, scale 0.25 mmol.

The substance dmG-Ser(Bu)-Cys(Acm)-Gly-NH-(CH2)3-NH2 had a crude mass of 408 mg and a crude yield of 85.5%.
